AC50 and cell number change data for 63 compounds are collected here from PubChem BioAssay AID2685 (National Center for Advancing Translational Sciences (NCATS), 2010).

As a reminder, the AC50 is the midpoint of the concentration-response curve, whichever way the signal moves.

The list shows a part of the results. These are further read-outs of the screen, such as a control signal, another cell line or another target. No call is given for them. Compounds called inactive in the main read-out are mostly missing here. The note in brackets gives the kind of curve behind each potency; many fits are weak.

The experiment can be described thus: qHTS Assay for Lipid Storage Modulators in Drosophila S3 Cells.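 On cell number change: cells counted by Cell Tracker Red CMTPX staining in the red channel.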 As to conditions: BODIPY lipid droplet fluorescence, 18-24 h; for cell number change: measured here: cell count max response, cells fed with added oleic acid. Summed up:
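Drosophila S3 cells got compounds at several concentrations plus oleic acid (400 uM solution). Laser-scanning cytometry with 488 nm excitation read lipid droplets at 500-530 nm and cells at 575-640 nm. Percent activity was relative to 20 uM Triacsin C.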

Setting [1] is: measured here: lipid fluorescence (Fed channel) AC50, cells fed with added oleic acid.
The mark [2] stands for this setting: measured here: cell number channel AC50, cells fed with added oleic acid.

As for `COc1ccc(-c2nn(-c3ccccc3)cc2/C=C(\CC(=O)O)c2nc3ccccc3s2)cc1OC`, the AC50 under setting [1] was 6.51 µM [rising, single point].

On to `Cc1ccc(-n2c(C)c(C)c3c(N)ncnc32)cc1`, for which the cell number change was 4.62%. Also, the AC50 under setting [1] was 6.51 µM [falling, single point].

For `CCCCCCc1ccc(OCC(=O)OC)cc1OCC(=O)OC`, the AC50 under setting [1] was 20.6 µM [rising, partial curve, poor fit].

Take `CCCC(=O)NC(c1ccc(N(C)C)cc1)c1ccc2cccnc2c1O` (configuration not stated): the cell number change was -22.8%. Also, the AC50 under setting [1] is 29.1 µM [falling, single point].

With `COc1ccc2c(c1)C(=O)N(c1ccc(C)cc1C)C(=O)C2`, the cell number change is 33.5%. Also, the AC50 under setting [2] was 5.8 µM [rising, partial curve]. Moreover, under setting [1], the AC50 is 20.6 µM [falling, single point].

In the case of `COc1ccccc1-c1c(C(F)(F)F)oc2cc(OCC(=O)Nc3ccccc3C(F)(F)F)ccc2c1=O`, the cell number change was -13.6%. Moreover, the AC50 under setting [1] was 23.1 µM [falling, single point].

As to `CC(=O)c1cccc(OCCCOc2cccc3cccnc23)c1`, the cell number change was -6.35%.

Consider `CCN1CCc2c(OCC(=O)Nc3ccc4c(c3)OCCO4)cccc2C1=O`, for which the cell number change was -5.2%.

Regarding `Cc1ccc(NCC(=O)c2ccc(C)cc2)cc1`, the cell number change was -29.9%. Under setting [1], the AC50 was 11.6 µM [falling, single point].

`CCOC(=O)c1c(N)nn(C(=O)C(C)(C)C)c1-c1ccccc1`: the cell number change was 3.78%. Besides, the AC50 under setting [1] is 0.082 µM [rising, full curve, poor fit].

For the compound `COc1cc(OC)c(N(C)S(=O)(=O)c2cccc(C(=O)Nc3nc(C)cs3)c2)cc1Cl`, the cell number change was -15.5%. The AC50 under setting [1] was 3.66 µM [rising, single point].

For the compound `O=C(NCC1COc2ccccc2O1)C1CCCN(S(=O)(=O)c2cccc3cccnc23)C1` (configuration not stated), the cell number change was 23.4%. Also, the AC50 under setting [1] is 25.9 µM [falling, single point].

As to `Cc1ccc(-c2nnc(Nc3ccc4c(c3)nc(C)n4C)c3ccccc23)cc1`, the cell number change was -39%. Further, the AC50 under setting [2] is 29.1 µM [falling, single point]. In addition, the AC50 under setting [1] was 23.1 µM [falling, single point].

In the case of `CS(=O)(=O)N1CC(C(=O)NC2CC2)Oc2ccc(Cl)cc21` (configuration not stated), the cell number change is 152%.

`CCCOC(=O)/C(C(N)=NCc1ccccc1)=C(\O)OCCC`: the cell number change is -59.3%. For the same compound, the AC50 under setting [2] is 18.4 µM [falling, single point]. Further, the concentration at half-maximal activity (AC50) under setting [1] was 2.31 µM [rising, single point].

As to `CCCN(CC(=O)Nc1ccccc1C)C(=O)/C=C/c1ccc(S(=O)(=O)N2CCCCCC2)cc1`, the cell number change was determined as 21.4%. Also, the AC50 under setting [1] is 25.9 µM [rising, single point].

Take `COc1cc(C2C(C#N)=C(N)Oc3cc(C)oc(=O)c32)ccc1OC(=O)N1CCOCC1` (configuration not stated): the cell number change came to 21.4%. Under setting [1], the AC50 was 0.164 µM [falling, full curve, poor fit].

In the case of `O=C(NC(=S)Nc1ccc(CN2CCOCC2)cc1)c1ccc(-c2ccc(Br)cc2)o1`, the cell number change was 51.1%.

For the compound `CSc1ccc(S(=O)(=O)NCC(=O)OCC(=O)N(C)C2CCCCC2)cc1[N+](=O)[O-]`, the cell number change was -8.5%.

Consider `COc1ccc(OCC(O)CN2CCN(c3ccccc3)CC2)cc1` (configuration not stated), for which the cell number change was 31.6%. In addition, the AC50 under setting [2] is 14.6 µM [rising, partial curve, poor fit].

In the case of `COc1ccc(C)cc1NC(=O)C(OC(=O)c1cnccn1)c1ccccc1` (configuration not stated), the cell number change came out at 34%. Also, under setting [2], the AC50 is 13 µM [rising, single point].

With `Cc1c(Cc2ccccc2)c(NCCCO)n2c(nc3ccccc32)c1C#N`, the cell number change was determined as 15.9%.

As for `OC(CNC1CCCCC1)COCCOc1ccc(Br)cc1` (configuration not stated), the cell number change is -3.92%. In addition, the AC50 under setting [1] was 5.8 µM [rising, single point].

Consider `O=C(O)c1cnc2ccccc2n1`, for which the cell number change was -5.26%. In addition, the AC50 under setting [1] is 0.291 µM [rising, full curve].

As for `CCOC(=O)c1c(C)c(C(=O)NCc2cccs2)c(C)n1CC`, the cell number change was -24.3%. Under setting [1], the AC50 was 7.31 µM [falling, partial curve].

In the case of `CCOc1ccc(NC(=O)CNC(=O)c2ccco2)cc1`, the cell number change worked out at 6.78%. The AC50 under setting [1] is 0.0461 µM [rising, full curve, poor fit].

As to `Cc1cc(C(F)(F)F)n2ncc(C(=O)O)c2n1`, the AC50 under setting [1] was 9.2 µM [falling, partial curve, poor fit].

`COc1cc(/C=C\C(=O)NCc2ccc3[nH]c(C)cc3c2)cc(OC)c1OC`: the cell number change is -0.789%. Also, under setting [1], the AC50 was 0.731 µM [rising, partial curve].

As to `CCNc1nc(NCC)nc(N/N=C(\C)c2ccc(OC)cc2)n1`, the AC50 under setting [1] is 1.84 µM [rising, partial curve, poor fit].

`O=C(NCC(=O)N(c1cccnc1)C(C(=O)NC1CCCCC1)c1ccccc1)c1ccco1` (configuration not stated): the cell number change was 14.3%. For the same compound, under setting [1], the AC50 was 6.51 µM [rising, single point].

For the compound `O=C(/C=C\Nc1cccc(F)c1)c1cccs1`, the AC50 was 1.46 µM [rising, full curve, poor fit] under setting [2] and 5.8 µM [rising, single point] under setting [1].

On to `CCN(CC)c1ccc(NC(=S)NC(=O)Cc2ccccc2)cc1`, for which the AC50 under setting [1] was 0.116 µM [falling, full curve, poor fit].

Consider `CC(=O)N1c2ccc(S(=O)(=O)N3CCC(C(=O)N4CCN(c5ccc(Cl)cc5)CC4)CC3)cc2CC1C` (configuration not stated), for which the AC50 under setting [1] is 29.1 µM [falling, single point].

Turning to `O=C1N=C(N2CCOCC2)S/C1=C\c1ccc(OS(=O)(=O)c2ccccc2)cc1`, the cell number change was -6.56%. Further, the AC50 under setting [1] was 0.13 µM [falling, full curve, poor fit].

With `COc1ccc([C@@H]2CC=C(C(=O)O)CN2S(=O)(=O)c2ccc(Cl)cc2)cc1`, the AC50 under setting [1] was 3.66 µM [rising, partial curve].

Consider `CC(=O)C1=C(O)C(=O)N(c2ccccn2)C1c1ccc(Cl)cc1` (configuration not stated), for which the cell number change stood at 31.4%.

With `Cc1sc2nc(C)n(/N=C/c3ccc(O)cc3)c(=O)c2c1C`, the AC50 under setting [2] is 1.64 µM [rising, partial curve] and the AC50 under setting [1] was 0.651 µM [rising, single point].

On to `COC(=O)C1=C(C(=O)c2ccccc2)C(c2ccc(OC)c(OC)c2)Nc2nnnn21` (configuration not stated), for which the cell number change was 20.7%. Also, under setting [1], the AC50 is 29.1 µM [rising, single point].

For `O=C(Nc1cccc(C(F)(F)F)c1)C1CCN(S(=O)(=O)c2cnc[nH]2)CC1`, the cell number change came to 2.37%. The AC50 under setting [1] is 2.06 µM [rising, partial curve, poor fit].

For `Cc1ccc2[nH]c(-c3ccccc3)c(CN3CCN(C)CC3)c(=O)c2c1`, the cell number change was -32.3%. The AC50 under setting [2] was 1.16 µM [falling, full curve, poor fit].

Consider `CCCn1nc(C(=O)NCc2ccccn2)c2ccccc2c1=O`, for which the cell number change is 16.3%. For the same compound, under setting [2], the AC50 was 0.164 µM [rising, full curve, poor fit].

In the case of `COc1ccc(C(=O)Nc2oc(-c3ccccc3)c(-c3ccccc3)c2C#N)cc1OC`, the cell number change worked out at 25.8%. Moreover, the AC50 under setting [2] is 3.66 µM [rising, full curve, poor fit]. Under setting [1], the concentration at half-maximal activity (AC50) was 4.11 µM [rising, full curve].

On to `COc1ccccc1OCC(=O)OCn1c(SC)nnc(C)c1=O`, for which the cell number change turned out to be 18.9%. For the same compound, under setting [1], the AC50 is 0.082 µM [rising, full curve, poor fit].

For the compound `N#Cc1ccccc1NCC(=O)N1CCN(S(=O)(=O)c2ccccc2)CC1`, the cell number change amounted to 12.3%. For the same compound, under setting [1], the AC50 was 29.1 µM [rising, single point].

In the case of `COC(=O)c1ccc(CSc2nnc(CNC(=O)c3ccccc3F)o2)o1`, the cell number change was -11%. In addition, the AC50 under setting [1] was 6.51 µM [rising, single point].

Turning to `O=C(CN1C(=O)C2(OCCO2)c2ccccc21)c1ccc(F)cc1`, the cell number change was -50.4%. In addition, the AC50 under setting [1] is 0.116 µM [falling, full curve, poor fit].

Regarding `CCOC(=O)NNc1ccc(C(F)(F)F)cn1`, the cell number change is -0.8%. Under setting [1], the AC50 is 2.91 µM [falling, single point].

On to `Cn1cc([N+](=O)[O-])c(C(=O)Nc2ccc3c(c2)OCCO3)n1`, for which the cell number change turned out to be 39.5%. For the same compound, the AC50 under setting [2] is 3.26 µM [rising, full curve].

Take `COc1ccc(NC(=S)NCc2cccs2)cc1OC`: the cell number change turned out to be 11.6%.

`CCOC(=O)c1[nH]cnc1C(=O)N[C@@H](C)c1ccccc1`: the cell number change is -30.9%. The AC50 under setting [2] is 3.66 µM [falling, single point].

For `CCCNS(=O)(=O)c1cc(Cl)ccc1OC`, the cell number change was -7.15%. Further, the AC50 under setting [1] is 0.082 µM [falling, full curve, poor fit].

Turning to `Cc1ccc(C(=O)CSc2nc3ccccc3c(=O)[nH]2)cc1`, the cell number change is -15.1%. Besides, the AC50 under setting [1] was 6.51 µM [rising, single point].

With `Cc1cc(-c2cc(-c3ccc(Cl)cc3)nc(N)c2C#N)co1`, the cell number change was -6.03%.

Consider `Cc1ccc(S(=O)(=O)N2CCc3cc4c(cc3C2C)OCCCO4)cc1` (configuration not stated), for which the cell number change amounted to 4.72%. In addition, the AC50 under setting [1] is 29.1 µM [falling, single point].

With `CC1CCC(C(=O)NC(C(=O)Nc2ccccn2)C(C)C)CC1` (configuration not stated), the cell number change stood at 11.2%.

Take `O=C(c1ccc(NS(=O)(=O)c2cccc(F)c2)cc1)N1CCCCC1`: the cell number change was 21.9%. Besides, the AC50 under setting [1] was 0.58 µM [rising, single point].

On to `Cc1ccccc1C1NC(=S)NC2=C1C(=O)CC(C)(C)C2` (configuration not stated), for which the cell number change came out at 18.1%. Further, the AC50 under setting [2] was 0.731 µM [rising, single point]. Besides, the AC50 under setting [1] is 1.84 µM [rising, partial curve].

With `O=C(NCc1cccc(Cl)c1)C1CCC(=O)N(CCCN2CCCC2=O)C1` (configuration not stated), under setting [1], the AC50 was 1.46 µM [falling, partial curve].

Regarding `COc1cc(CNn2c(C)n[nH]c2=S)cc(Cl)c1OCC(=O)NC(C)(C)C`, the cell number change is -2.11%.

As for `N#Cc1c(C#N)c(O)c2ccccc2c1O`, the cell number change came to 28.8%. The AC50 under setting [2] is 1.84 µM [rising, full curve, poor fit]. In addition, the AC50 under setting [1] was 0.411 µM [falling, full curve, poor fit].

Turning to `Cc1ccc(S(=O)(=O)NC2(C(F)(F)F)NC(=O)N(Cc3ccccc3)C2=O)cc1` (configuration not stated), the cell number change was found to be 6.92%.

As to `Cc1ccc2[nH]cc(CCNC(=O)Nc3ccccc3)c2c1`, the cell number change stood at 75%. Also, the AC50 under setting [2] is 4.11 µM [rising, full curve]. For the same compound, under setting [1], the AC50 was 5.17 µM [rising, full curve].

As to `O=C(CN(Cc1ccccc1Cl)C(=O)CNS(=O)(=O)c1ccccc1)NCC1CCCO1` (configuration not stated), the cell number change came out at 15%.
